Experimental data taken from patent publication US20090170069A1 (ARIZONA BOARD OF REGENTS ON BEHALF OF THE UNIVERSITY OF …, published 2009).

Molecular target: T1, CFluc(398-550)-Hif-1α
T1 construct: also called CFluc-HIF-1α; CFluc-Hif1α
T1 chain: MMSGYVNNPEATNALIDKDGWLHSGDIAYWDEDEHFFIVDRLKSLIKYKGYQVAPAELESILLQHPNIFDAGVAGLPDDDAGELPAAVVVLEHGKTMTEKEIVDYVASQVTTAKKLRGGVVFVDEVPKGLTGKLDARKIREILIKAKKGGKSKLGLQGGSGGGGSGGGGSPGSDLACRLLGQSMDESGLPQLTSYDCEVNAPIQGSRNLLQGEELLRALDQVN
Experiment: cell-free split-luciferase reassembly, rabbit reticulocyte lysate

binding result: binds
B1: p300-NFluc(2-416) (other)
chain: MGSGAHTADPEKRKLIQQQLVLLLHAHKCQRREQANGEVRQCNLPHCRTMKNVLNHMTHCQSGKSCQVAHCASSRQIISHWKNCTRHDCPVCLPLKNAGDKTGGGGGSGGGGSGGGGTEDAKNIKKGPAPFYPLEDGTAGEQLHKAMKRYALVPGTIAFTDAHIEVNITYAEYFEMSVRLAEAMKRYGLNTNHRIVVCSENSLQFFMPVLGALFIGVAVAPANDIYNERELLNSMNISQPTVVFVSKKGLQKILNVQKKLPIIQKIIIMDSKTDYQGFQSMYTFVTSHLPPGFNEYDFVPESFDRDKTIALIMNSSGSTGLPKGVALPHRTACVRFSHARDPIFGNQIIPDTAILSVVPFHHGFGMFTTLGYLICGFRVVLMYRFEEELFLRSLQDYKIQSALLVPTLFSFFAKSTLIDKYDLSNLHEIASGGAPLSKEVGEAVAKRFHLPGIRQGYGLTETTSAILITPEGDDKPGAVGKVVPFFEAKVVDLDTGKTLGVNQRGELCVRGPMIMSGYVNNPEATNALIDKDG
